In PubChem BioAssay AID1347423 (Functional Genomics Laboratory (NCATS/FGL), 2020) one finds z-score data, which are given here for 67 sequences.

Screen size: about 52,000 sequences; about 210 (0.4%) were called active.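 How the source made its calls: active means gene whose silencing raises cell survival under the drug, median off-target-corrected z-score across its silencing RNAs 2 or more; inactive means the rest.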 The list shows a part of the results.

The nature of the experiment: Resistance to Poly (ADP-Ribose) Polymerase inhibitor: Gene Identification via Genome-wide siRNA Screen. Particulars: mouse BRCA2 R2336H ES cells, olaparib, CellTiter-Glo viability; active compounds read high. In outline:
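Mouse BRCA2 R2336H ES cells were reverse-transfected with siRNA (20 nM final), treated at 48 h with 500 nM olaparib, and read by CellTiter-Glo after 72 h. Scores: MAD-based z per siRNA, median per gene, seed off-target correction.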
In general terms: In ATP-based viability assays light output follows the ATP content of the culture.
As to CCGGAGAUUUGCUCUUAGUTT against Pcdhb3, the z-score is inactive: 0.522.
In the case of GGUAUGACCCAGAAGAAGGTT against Pip5k1c, the z-score was inactive: -1.89.
As for CCGACAAAAGGUAUUCUGGTT against Aatf, the z-score was inactive: -1.4.
As for GGAAGGAUAUUGGUUACCATT against Zmynd11, the z-score is inactive: 0.0875.
As for GGUAACUGAGAAAACCAGATT against Adam29, the z-score was active: 1.12.
Next, CCUUUAAAGUAAGCAUGUGTT against Slc27a4: inactive: 0.658; GCCGUUCCUAUGUCUAUGCTT against Serpina1b: inactive: 0.809; GCAGCAUCGCGUAGAAACATT against Nola1: inactive: -3.04.
As for CCGGUACCUAAACUACUUCTT against Unc5b, the z-score is inactive: 0.776.
The same measure for GCGUAAACCAAGAAAGCUUTT against Mcl1: inactive: -3.18.
The same measure for “GUCAGAACAAAACCAAAUGTT against E330013P04Rik”: inactive: -1.17; for GGAAGAUAAGCUAAAUAUCTT against Clca4: inactive: 0.407.
CCAACAUCUCUGUAUACUGTT against Olfr8: the z-score is inactive: -0.812.
Next, GGUGAUGAAAAUGACAUUCTT against Atp1b4: inactive: 0.549; GGGUUGCUAAAUUUGAAACTT against Psg25: inactive: 0.742.
As to GGAAGCAUUAUUGGUCAAUTT against Tcf3, the z-score is inactive: -0.338.
The same measure for GCUGCUCUGCUAUAAGUAUTT against Kptn: inactive: 1.13.
The same measure for “GGGCAAGGUGUAUUGUCAATT against D830050J10Rik”: inactive: 0.223; for GGAUGAUUUAUGGUUACUGTT against V1rg3: inactive: -1.46; for GGAUCAUUUUGAACAAGGCTT against Srl: inactive: 0.178.
Take “GGCUUGGUGACAGGACUAUTT against 2310008H04Rik”: the z-score was inactive: -2.94.
For the sequence GGCUAUGGUUGUGAGUCAATT against Btbd7, the z-score was inactive: 0.141.
The same measure for GGACUGACUCUUUUUUAACTT against Ube1c: inactive: -0.322; for GGAGAAAGUCUUUGUGAACTT against Lipc: inactive: 0.496; for GGAAAACAAGGAACAUGCGTT against Mja1l: inactive: 1.47.
Regarding “GGAAGUCAUUUUUUCCAAGTT against 8430410K20Rik”, the z-score is inactive: -0.208.
For the sequence GCAGUACAAGCGAUUUGUGTT against Duox2, the z-score was inactive: -0.0493.
Take GGGUUAAAGUGCCACGUACTT against Apoc4: the z-score was inactive: 0.201.
Regarding GCAAGAAAAUCUGAUGCCGTT against Sumf2, the z-score is inactive: -0.0251.
Next, “GGAAGUUGGAGAAGCAAAATT against 2900042E01Rik”: inactive: -1.32; GGGUAGGUUUGAAAGAAAGTT against Zfp191: inactive: 2.23.
For CCGAAAUGUGUGUUUUAAATT against Vapb, the z-score is inactive: 0.159.
As for “GCACGUGAUGCAAGUUCUATT against 0610042C05Rik”, the z-score was inactive: -0.765.
For the sequence GCCUAUUGUAAAUACAGGUTT against Bdnf, the z-score is inactive: 0.525.
Consider “GGCAAACUGCGUGUACACUTT against 1110014L17Rik”, for which the z-score was inactive: -0.755.
With GGAUGAACAGGAGAAAGUCTT against Irak2, the z-score was inactive: 0.0975.
Next, “GCCUCGAUCUGAUCUAGAGTT against 9430056A22Rik”: inactive: -0.586; GCUACUCAUUGCUAAGUGUTT against Kcnmb2: inactive: 0.752.
Consider GGUGGACAAGAUGAUGGAATT against Gps2, for which the z-score is inactive: -0.315.
GGAUUACAAAUGGAGAAAGTT against Tmem16d: the z-score was inactive: 1.12.
The same measure for GCCCAACAAAAAGUUGAUUTT against Vrk2: inactive: 0.557; for CCAACAUCUAGAGAGUCUGTT against Olfr1031: inactive: 0.0263.
Next, GCAGAUAAUUUUAACCCUCTT against Inpp5b: inactive: -0.499; GGUCCUCCAAUGGAACAAGTT against Rhced: inactive: -1.27; GGAAGACUUUGGCUUUGAATT against Tfpt: inactive: 0.732.
The same measure for GCUUUUCGGAGCUCUAUAUTT against Sipa1: inactive: 0.368; for CCAUUUAAACUAGAUCCCATT against Mid2: inactive: 0.0835.
On to GGAGACUUCAGCACCUUUGTT against Slp, for which the z-score was inactive: 0.531.
In the case of “GCUAAGAGCUGAAAGUGAATT against 4933426L22Rik”, the z-score is inactive: 0.2.
The same measure for GCGAUGCUACUGAAAGCGATT against Catsper2: inactive: 0.928; for CCAUCUCUCCAAAGGGCUGTT against Olfr32: inactive: -2.4.
The same measure for GCACACAUCAAGAAACUUGTT against Mxi1: inactive: -0.432.
GGUGUCAAAAGUUUUCUAGTT against Tcf23: the z-score is inactive: 0.311.
Consider GGCUUUCAUCGUUUUUGCCTT against Rbm12, for which the z-score was inactive: -0.818.
“GGUGGAUUCUAUUAAAUGCTT against A830093M07”: the z-score was inactive: 0.559.
For the sequence GGUUUGUGGGCUUUCACACTT against Pdxp, the z-score was inactive: 0.869.
Next, “CCAUUUGACAAGACUGCCATT against B430201G11Rik”: inactive: -0.566; ACGCAAGUCACCAUCUUCUTT against Tas2r118: inactive: -0.475; CGGAAGUGUCAAAACCAGATT against Zfp509: inactive: 0.0415.
The same measure for GGAUGUAAAAUGCAGUUUATT against Tmsb4x: inactive: 2.07; for “GCAGCUUCGAAACCUACCATT against 1110003P22Rik”: inactive: -0.459.
In the case of GGCUUUGCUAGACACGGCUTT against BC011210, the z-score was inactive: -0.291.
The same measure for CGAAGCACAUAAACUAAAGTT against Ero1l: inactive: 0.0986; for CCUGACUAUCUGAAAGCUATT against Sod2: inactive: 0.00276.
Next, “GCAGGACAGCAGGAAAAGUTT against 2610028H24Rik”: inactive: -1.4; GGAGACAGUGAGACAGAUATT against Ncoa3: inactive: 2.27.
The same measure for “CCUCAAGCCUCACAAUUCATT against 6720480D16Rik”: inactive: 0.389.
